Laboratory results: patent publication US12496315B2, “Compositions for drug delivery and methods of use thereof” (Stellular Bio, Inc., priority 2018, dated 2025)

Tested on: human iPSC-derived platelets
Experiment: Covalent conjugation of Ipilimumab to human iPSC-derived platelets
Format: cell-based

Ipilimumab-conjugated platelets: human iPSC-derived platelets covalently conjugated with Ipilimumab
CD61 expression after conjugation: retained CD61 expression
